Values from PubChem BioAssay AID1259424 (University of Nebraska Medical Center, 2018)
Test: 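Rank knockdowns across the genome by resemblance to the KSR1 depletion profile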 (primary screen). Cell system: human HCT116 colon cancer cells. Knock-down reagent: siRNA pool against human genes, 50 nM. Measurement: 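Six signature mRNAs by branched-DNA multiplex assay, scaled to two housekeeping genes and non-targeting median, log2; matched to mean KSR1 knockdown profile by Pearson correlation and euclidean distance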. Direction: mean correlation with KSR1 profile and KSR1 correlation: higher = expression change more like KSR1 knockdown; mean distance from KSR1 profile: higher = expression change less like KSR1 knockdown.
In all, the deposit lists about 14,000 reagents; below is a random part of them. 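Higher correlation or smaller distance means closer resemblance to KSR1 loss; control wells, including KSR1 knockdowns, recur on many plates.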 Not all columns of the deposit are shown. Not stated in the record: the time to read-out.

mean correlation with KSR1 profile | mean distance from KSR1 profile | KSR1 correlation, replicate 1 | gene
-0.655 | 1.42 | 0.0835 | MAST2 (GeneID 23139)
0.33 | 0.974 | 0.0952 | HLTF (GeneID 6596)
-0.405 | 1.91 | -0.497 | SPRY2 (GeneID 10253)
-0.391 | 2.52 | -0.342 | DHX32 (GeneID 55760)
0.0107 | 1.62 | -0.159 | PARP12 (GeneID 64761)
-0.00261 | 2.23 | 0.222 | AIF1 (GeneID 199)
0.746 | 3.37 | 0.641 | LOC83459 (retired record) (GeneID 83459)
-0.468 | 2.01 | -0.387 | LYZ (GeneID 4069)
0.182 | 1.54 | 0.312 | CSRP2 (GeneID 1466)
0.231 | 2.42 | 0.149 | KDM1A (GeneID 23028)
-0.0479 | 1.35 | -0.0291 | TPD52L2 (GeneID 7165)
-0.497 | 1.7 | -0.248 | KIAA1210 (GeneID 57481)
0.143 | 4.42 | -0.011 | EXT2 (GeneID 2132)
0.385 | 1.12 | 0.476 | SYN3 (GeneID 8224)
0.137 | 1.89 | -0.252 | NMB (GeneID 4828)
-0.169 | 2.61 | -0.011 | RAB2B (GeneID 84932)
-0.333 | 2.42 | -0.379 | ECE1 (GeneID 1889)
-0.182 | 1.63 | -0.172 | ELAC1 (GeneID 55520)
-0.429 | 3.4 | -0.453 | ID1 (GeneID 3397)
0.249 | 1.62 | 0.313 | KLRD1 (GeneID 3824)
-0.137 | 2.18 | 0.228 | AASDHPPT (GeneID 60496)
-0.181 | 1.74 | -0.113 | KCNA10 (GeneID 3744)
-0.401 | 1.78 | -0.592 | ARV1 (GeneID 64801)
0.272 | 2.87 | 0.203 | AFF3 (GeneID 3899)
-0.604 | 2.5 | -0.519 | TIMP1 (GeneID 7076)
-0.263 | 1.23 | -0.319 | C1QB (GeneID 713)
0.209 | 1.68 | -0.067 | HECTD1 (GeneID 25831)
-0.862 | 3.55 | -0.673 | CELF4 (GeneID 56853)
-0.116 | 3.14 | -0.158 | AMOTL2 (GeneID 51421)
-0.0528 | 2.38 | 0.061 | ABO (GeneID 28)
0.217 | 1.6 | 0.394 | LMTK2 (GeneID 22853)
0.43 | 1.21 | 0.107 | PSEN1 (GeneID 5663)
0.635 | 0.659 | 0.679 | PLS1 (GeneID 5357)
0.51 | 1.01 | 0.428 | PSG3 (GeneID 5671)
-0.341 | 1.66 | -0.228 | RNASE1 (GeneID 6035)
0.728 | 1.96 | 0.692 | PCDHB10 (GeneID 56126)
-0.168 | 2.55 | -0.333 | DNM1L (GeneID 10059)
0.4 | 2.09 | 0.364 | GRIN3A (GeneID 116443)
-0.358 | 6.43 | 0.0389 | ZKSCAN7 (GeneID 55888)
-0.387 | 4.45 | -0.371 | SLC10A3 (GeneID 8273)
-0.452 | 2.85 | -0.466 | VPS37B (GeneID 79720)
0.414 | 1.95 | 0.402 | COL5A2 (GeneID 1290)
-0.328 | 2.61 | -0.47 | PCBP3 (GeneID 54039)
0.854 | 2.08 | 0.885 | RIOK3 (GeneID 8780)
-0.0473 | 1.54 | -0.03 | CACNA2D1 (GeneID 781)
-0.0323 | 4.52 | 0.0375 | TTC1 (GeneID 7265)
-0.0801 | 3.49 | -0.163 | S100A1 (GeneID 6271)
-0.159 | 3.23 | -0.302 | MTX2 (GeneID 10651)
0.468 | 1.9 | 0.374 | STARD7 (GeneID 56910)
-0.263 | 3.28 | -0.329 | PDLIM1 (GeneID 9124)
